PubChem BioAssay AID1508588, Peter MacCallum Cancer Centre – 2020
The deposit covers about 18,000 reagents; this is a random part of them. 790 of all reagents (4.4%) count as active. 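Calls rest on a combination of fold-change classes in drug and vehicle arms, not all shown here.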

Screen: 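Knock-downs boosting vemurafenib effects on melanoma cell growth or lactate release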 (primary screen)
Cell system: human WM266.4 melanoma cells (BRAF V600 mutant)
Knock-down reagent: siRNA pool against human genes, 40 nM
Timing: 96 h from transfection to read-out
Challenge: vemurafenib 300 nM (about IC25), added 48 h after transfection, for 48 h; comparison arm got DMSO vehicle only
Measurement: 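Ratios to non-targeting siRNA for cell gain, counted as DAPI nuclei after minus before drug and averaged over two replicates, and for absorbance-read medium lactate per cell; both binned into fold-change classes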
Reading the numbers: cell gain with vemurafenib: higher = more cell gain than with non-targeting siRNA; lactate per cell with vemurafenib: higher = more lactate made per cell
Active means: 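a knock-down counts as enhancing when its fold-change classes with vehicle and with vemurafenib, taken together, show a stronger drug effect on cell gain or lactate per cell; exact class pairs not stated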
Meaning of the calls: active = enhances vemurafenib effect; inactive = no enhancement seen

no.	target	cell gain with vemurafenib	lactate per cell with vemurafenib	Call
1	TMEM200A (transmembrane protein 200A)	0.37	0.72	inactive
2	SLC24A2	0.55	1.32	inactive
3	ZYX (zyxin)	0.55	1.64	inactive
4	EDAR (ectodysplasin A receptor)	1.01	0.82	inactive
5	TMPRSS15 (transmembrane serine protease 15)	0.69	0.58	inactive
6	RAI1 (retinoic acid induced 1)	0.25	0.63	inactive
7	PRSS22 (serine protease 22)	0.15	1.26	inactive
8	PABPN1 (poly(A) binding protein nuclear 1)	0.65	0.5	inactive
9	ACE (angiotensin I converting enzyme)	0.98	1.12	inactive
10	DCT (dopachrome tautomerase)	0.16	1.34	inactive
11	ZNF346 (zinc finger protein 346)	0.46	0.78	inactive
12	SLC28A2	0.5	1.23	inactive
13	PROP1 (PROP paired-like homeobox 1)	0.66	0.46	inactive
14	XPO7 (exportin 7)	0.49	0.8	inactive
15	PRDM1 (PR/SET domain 1)	0.44	0.82	inactive
16	ZSWIM9 (zinc finger SWIM-type containing 9)	0.47	0.84	inactive
17	ACOT13 (acyl-CoA thioesterase 13)	1.14	0.52	inactive
18	RABEP1 (rabaptin, RAB GTPase binding effector protein 1)	1.01	0.38	inactive
19	CRYBB2 (crystallin beta B2)	0.2	1.41	inactive
20	CEP112 (centrosomal protein 112)	0.99	1.06	inactive
21	TSPAN33 (tetraspanin 33)	0.78	0.93	inactive
22	CLEC18A (C-type lectin domain family 18 member A)	0.81	0.68	inactive
23	MEDAG (mesenteric estrogen dependent adipogenesis)	0.83	0.88	inactive
24	DLX4 (distal-less homeobox 4)	0.29	1.92	inactive
25	XG (Xg glycoprotein (Xg blood group))	0.75	1.18	inactive
26	SYCP2 (synaptonemal complex protein 2)	0.75	0.75	inactive
27	ZNG1C (Zn regulated GTPase metalloprotein activator 1C)	0.92	0.86	inactive
28	PIGV (phosphatidylinositol glycan anchor biosynthesis class V)	0.83	0.86	inactive
29	TSPAN14 (tetraspanin 14)	0.64	1.19	inactive
30	MARK2 (microtubule affinity regulating kinase 2)	0.87	1.04	inactive
31	TIGD4 (tigger transposable element derived 4)	0.73	0.77	inactive
32	ODF4 (outer dense fiber of sperm tails 4)	0.44	0.8	inactive
33	MICA (MHC class I polypeptide-related sequence A)	0.68	0.56	inactive
34	CIBAR2 (CBY1 interacting BAR domain containing 2)	0.85	1.07	inactive
35	ITCH (itchy E3 ubiquitin protein ligase)	0.16	2.13	inactive
36	ABR (ABR activator of RhoGEF and GTPase)	0.32	1.17	inactive
37	ATG2B (autophagy related 2B)	0.8	0.66	inactive
38	ZAR1 (zygote arrest 1)	0.49	1.02	inactive
39	LRP1B (LDL receptor related protein 1B)	0.35	0.9	inactive
40	CPNE7 (copine 7)	0.69	1.33	inactive
41	USP17L9P	0.59	1.88	inactive
42	PLA1A (phospholipase A1 member A)	0.52	1.16	inactive
43	S100A7P3 (S100 calcium binding protein A7 pseudogene 3)	0.44	1.02	inactive
44	LILRA5 (leukocyte immunoglobulin like receptor A5)	0.5	1.17	inactive
45	MTFMT (mitochondrial methionyl-tRNA formyltransferase)	0.59	0.87	inactive
46	ZNRF1 (zinc and ring finger 1)	0.14	1.02	inactive
47	HTT (huntingtin)	0.49	1.73	inactive
48	KHSRP (KH-type splicing regulatory protein)	0.06	0.62	inactive

Records above whose target name begins with C or c (5):
target	cell gain with vemurafenib	lactate per cell with vemurafenib	Call
CRYBB2 (crystallin beta B2)	0.2	1.41	inactive
CEP112 (centrosomal protein 112)	0.99	1.06	inactive
CLEC18A (C-type lectin domain family 18 member A)	0.81	0.68	inactive
CIBAR2 (CBY1 interacting BAR domain containing 2)	0.85	1.07	inactive
CPNE7 (copine 7)	0.69	1.33	inactive

The listing continues:
no.	target	cell gain with vemurafenib	lactate per cell with vemurafenib	Call
49	SEL1L (SEL1L adaptor subunit of SYVN1 ubiquitin ligase)	0.64	0.77	inactive
50	YAE1 (YAE1 maturation factor of ABCE1)	0.49	1.98	inactive
51	PPIH (peptidylprolyl isomerase H)	0.65	0.78	inactive
52	RASL10A (RAS like family 10 member A)	0.44	1.14	inactive
53	ZNF236 (zinc finger protein 236)	1.16	0.92	inactive
54	OR8S1 (olfactory receptor family 8 subfamily S member 1)	0.56	0.63	inactive
55	GARIN5A (golgi associated RAB2 interactor 5A)	0.67	1.46	inactive
56	TNNI2 (troponin I2, fast skeletal type)	0.07	1.07	inactive
57	PYCARD (PYD and CARD domain containing)	0.54	0.74	inactive
58	HACD3 (3-hydroxyacyl-CoA dehydratase 3)	0.4	0.88	inactive
59	S100G (S100 calcium binding protein G)	0.38	1.02	inactive
60	ITSN2 (intersectin 2)	0.01	2.21	inactive
61	DHX16 (DEAH-box helicase 16)	0.42	0.58	inactive
62	BPIFB2 (BPI fold containing family B member 2)	0.53	0.3	inactive
63	TFF1 (trefoil factor 1)	0.28	2.02	inactive
64	DUX1 (double homeobox 1)	0.67	1.2	inactive
65	CLDN2 (claudin 2)	0.14	1.29	inactive
66	KRTAP10-12 (keratin associated protein 10-12)	0.48	0.9	inactive
67	ELAC2 (elaC ribonuclease Z 2)	0.47	1.1	inactive
68	DTX1 (deltex E3 ubiquitin ligase 1)	0.92	0.97	inactive
69	MS4A3 (membrane spanning 4-domains A3)	0.65	0.9	inactive
70	CHAF1B (chromatin assembly factor 1 subunit B)	0.11	1.34	inactive
71	OR10J5 (olfactory receptor family 10 subfamily J member 5)	0.52	0.91	inactive
72	FCRL1 (Fc receptor like 1)	0.6	0.27	inactive
73	KRABD3 (KRAB domain containing 3)	0.37	1.7	inactive
74	OR5J2 (olfactory receptor family 5 subfamily J member 2)	0.74	0.82	inactive
75	USP13 (ubiquitin specific peptidase 13)	0.98	1.1	inactive
76	OR2C3 (olfactory receptor family 2 subfamily C member 3)	0.1	0.97	inactive
77	CARF (calcium responsive transcription factor)	0.64	0.78	inactive
78	PAK6-AS1 (PAK6 antisense RNA 1)	0.41	1.27	inactive
79	C14orf180 (chromosome 14 open reading frame 180)	0.22	1.96	inactive
80	LPXN (leupaxin)	0.96	0.99	inactive
81	COL15A1 (collagen type XV alpha 1 chain)	0.65	0.4	inactive
82	YBX3 (Y-box binding protein 3)	0.19	1.16	inactive
83	PRKAR1A	0.6	1.08	inactive
84	EFNA1 (ephrin A1)	0.96	0.57	inactive
